From US5654273A (Children's Medical Center Corporation, priority 1994, dated 1997)

Assay: peptide made by a vendor
Settings: whole synthesis, RP-HPLC and mass spectrometry

Sequence: RRRPRPPYLPRPRPPPFFPPRLPPRIPPGFPPRFPPRFP
- purity (crude or final not stated): 96%

Where no end group is shown, it is not given here.
